# Results of single-concentration screens

By UniProt entry, the sequences of proteins in these tests, tags left out. Residues count along the entry.
UniProt Q8IDJ8, 1-583: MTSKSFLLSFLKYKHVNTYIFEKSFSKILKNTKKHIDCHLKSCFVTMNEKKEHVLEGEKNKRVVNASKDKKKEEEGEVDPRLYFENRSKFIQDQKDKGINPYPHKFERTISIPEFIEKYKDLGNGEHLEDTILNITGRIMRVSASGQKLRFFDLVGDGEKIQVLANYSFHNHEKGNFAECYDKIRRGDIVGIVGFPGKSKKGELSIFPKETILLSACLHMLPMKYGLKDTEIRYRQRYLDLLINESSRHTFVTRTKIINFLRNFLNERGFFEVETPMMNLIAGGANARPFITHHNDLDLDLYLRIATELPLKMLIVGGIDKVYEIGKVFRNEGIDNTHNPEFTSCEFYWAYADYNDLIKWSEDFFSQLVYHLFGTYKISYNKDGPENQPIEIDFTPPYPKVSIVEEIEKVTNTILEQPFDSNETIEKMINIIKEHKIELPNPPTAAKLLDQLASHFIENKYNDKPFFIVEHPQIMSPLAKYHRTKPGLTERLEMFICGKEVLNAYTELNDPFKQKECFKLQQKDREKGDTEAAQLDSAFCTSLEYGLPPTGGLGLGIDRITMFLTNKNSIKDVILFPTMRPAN
UniProt P9WNZ1, whole entry: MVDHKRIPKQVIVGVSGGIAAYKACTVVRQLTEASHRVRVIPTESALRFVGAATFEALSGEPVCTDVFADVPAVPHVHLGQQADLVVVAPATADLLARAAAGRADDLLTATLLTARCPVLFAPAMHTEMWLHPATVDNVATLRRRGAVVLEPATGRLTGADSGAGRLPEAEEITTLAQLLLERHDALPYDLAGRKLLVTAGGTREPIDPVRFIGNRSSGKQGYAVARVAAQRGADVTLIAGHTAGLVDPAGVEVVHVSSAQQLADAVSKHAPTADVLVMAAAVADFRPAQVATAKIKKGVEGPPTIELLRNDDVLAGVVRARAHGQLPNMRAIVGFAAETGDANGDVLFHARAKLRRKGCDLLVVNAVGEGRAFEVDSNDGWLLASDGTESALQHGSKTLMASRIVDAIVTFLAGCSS

PfKRS1: 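Enzyme assay of the cytosolic lysyl-tRNA synthetase in 384-well plates, read by luminescence. Target: Lysine-tRNA ligase, Plasmodium falciparum 3D7 (UniProt Q8IDJ8). Concentration: 30 µM. Higher reads as stronger inhibition, judged from the few compounds that gave an IC50. Size under these conditions: about 69,000 compounds, about 49 of them at 50% or above in at least one test.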
Toxoplasma: 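Assay of Toxoplasma gondii numbers, read through their beta-galactosidase reporter with a colour substrate. Compounds at 10 µM. Higher reads as fewer parasites (inferred from which compounds were picked for retests). Size under these conditions: about 67,000 compounds, about 260 of them at 50% or above in at least one test.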
CoaBC: 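Enzyme assay of CoaBC with a phosphate dye (Biomol Green) read at 650 nm. Target: Coenzyme A biosynthesis protein CoaBC, Mycobacterium tuberculosis (UniProt P9WNZ1). Concentration: 30 µM. Direction is inferred from only a few compounds that gave an IC50; most scored high, so higher reads as stronger inhibition. Most strong results did not repeat in a second test. Of about 67,000 compounds tested this way, about 40 (0.06%) reached 50% or more in at least one test.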

Results are given as percent effect.
The controls that fix the scale are not given in the record; negative values are as filed.
Compounds were drawn at random from those tested, without regard to their results.
A dash means the value is not listed here; it may have been measured.

structure	PfKRS1	Toxoplasma	CoaBC
CCCn1cc(-c2ccnc(NC3CCCc4ccccc43)n2)c(C)n1 (stereo unspecified)	4.639%	5.361%	8.845%
CCc1cn[nH]c1C1CCCN(C(=O)c2noc(C)c2COC)C1 (stereo unspecified)	5.623%	2.256%	3.178%
CCC(C)NS(=O)(=O)Cc1cccc(NC(=O)c2ccc[nH]2)c1 (stereo unspecified)	3.474%	-7.99%	10.95%
CN(Cc1cn2c(n1)CN(Cc1ccc(F)cc1)CC2)Cc1ccco1	2.424%	-	3.337%
Cc1ncsc1CCN1CCC(N(C)Cc2ncc(C(C)C)o2)C1 (stereo unspecified)	-3.809%	1.593%	-3.566%
[H][C@@]12C[C@H](C(=O)N3CCCCO3)CN(C(=O)c3ccoc3C)[C@]1([H])CCO2	-	14.31%	-
CC(C)c1nccn1CCCNC(=O)c1ccc(-c2cccnc2)nc1	0.3666%	0.8661%	5.04%
Cc1cccc(CSc2nnc(C)n2CC(N)=O)c1	2.756%	-2.429%	-4.994%
O=C1[C@H]2CN(Cc3ccc(F)cc3)C[C@H]2CN1CCN1CCCC1	-1.219%	-	-0.3861%
N#Cc1cnc2c(F)cc(F)cc2c1NC1CCN(CC(N)=O)CC1	5.442%	17.61%	1.119%
CC(C)CS(=O)(=O)N1CCC2(CN(c3ccsc3)C(=O)CN2C)C1 (stereo unspecified)	6.297%	-	4.481%
Cn1cc(CCCN2CCCC(c3cc(C(F)(F)F)[nH]n3)C2)cn1 (stereo unspecified)	7.074%	-7.65%	9.742%
CCOCCC1(CNC(=O)c2ccncc2Cl)CCC1	10.71%	3.024%	-3.505%
Cc1ccc(CN2CC3(CCN(C(=O)c4cccnc4)C3)C2)o1.O=C(O)C(F)(F)F.O=C(O)C(F)(F)F	-	4.613%	-
Cc1ccc(C(=O)N2Cc3c(CN(C)C)nn(C)c3C2)cc1C	6.747%	-	-9.13%
COc1ccc(CN2CCC3(CCN(c4cccnc4)C3=O)C2)cc1.O=C(O)C(F)(F)F.O=C(O)C(F)(F)F (stereo unspecified)	-	6.479%	-
CS(=O)(=O)N1CCCC12CCCN(C(=O)c1ccncc1)C2 (stereo unspecified)	5.854%	0.976%	4.206%
Cc1cc(C(=O)N2CCc3nc(N4CCOCC4)nc(C)c3C2)c(C)o1.O=CO	-	-1.244%	-
O=C(COc1cccc(Br)c1)N1CCOCC1c1ncon1 (stereo unspecified)	2.336%	1.895%	-0.8304%
Cc1ccc(CN2CC[C@@H]3[C@@H](CO[C@H]3CN3CCN(C)CC3)C2)s1	0.6945%	-	-2.963%
Cc1ccc(CN2CCC3(CCC(=O)N3CC(=O)N(C)C)CC2)s1	2.298%	-	4.941%
O=C(NCc1cccnc1)C1=NOC2(CCN(C3CCOCC3)C2)C1 (stereo unspecified)	3.45%	1.634%	9.446%
Cc1noc(-c2cnc(NC(C)C)nc2-c2ccco2)c1C	0.4271%	19.08%	1.675%
Cc1ccc(N2CCN(C(=O)CCC(F)(F)F)C(C)C2)cc1 (stereo unspecified)	3.356%	-10.14%	5.882%
COc1ccccc1C1(C(=O)N2CCCC(c3cc(C)[nH]n3)C2)CC1 (stereo unspecified)	0.8399%	7.84%	-3.143%
c1ccc(CCN2CCN(C3CCOC4(CCOCC4)C3)CC2)nc1 (stereo unspecified)	0.5214%	-8.98%	7.403%
Cc1nccc(-c2ccccc2)c1C(=O)N1CC[C@](C)(O)C(C)(C)C1	-1.021%	7.132%	7.323%
CCCOc1ccc(C2SCC(=O)Nc3c2c(=O)[nH]n3C(C)C)cc1 (stereo unspecified)	1.914%	-8.188%	2.895%
Cc1nc(-c2cccc(N3CCC(N4CCCC(C#N)C4)CC3)c2)cs1 (stereo unspecified)	-2.661%	1.617%	0.9615%
Cn1ccc(C(=O)N2C[C@H]3CCC[C@@]3(COCc3cccnc3)C2)n1	-1.354%	-	10.83%
Cl.NC(Cc1nc(-c2ccccc2)no1)c1ccccc1 (stereo unspecified)	-	11.53%	-
CNc1nc(C2CCCN2C(C)=O)nc2c1CCN(CC1CC1)C2 (stereo unspecified)	-0.6075%	-5.79%	-1.178%
Cc1oncc1C(=O)N1CCC2(CC1)CN(S(C)(=O)=O)c1ccccc12	9.565%	4.253%	2.703%
Cc1noc(C)c1CN1CCCC1C(=O)OCc1ccccc1 (stereo unspecified)	4.739%	6.433%	3.828%

The last 3 entries again:

{"structure": "CNc1nc(C2CCCN2C(C)=O)nc2c1CCN(CC1CC1)C2", "stereo": "stereo unspecified", "PfKRS1": -0.6075, "Toxoplasma": -5.79, "CoaBC": -1.178}
{"structure": "Cc1oncc1C(=O)N1CCC2(CC1)CN(S(C)(=O)=O)c1ccccc12", "PfKRS1": 9.565, "Toxoplasma": 4.253, "CoaBC": 2.703}
{"structure": "Cc1noc(C)c1CN1CCCC1C(=O)OCc1ccccc1", "stereo": "stereo unspecified", "PfKRS1": 4.739, "Toxoplasma": 6.433, "CoaBC": 3.828}

Data taken from ChEMBL document CHEMBL3988442, “University of Dundee, Small-Polar-MMV Screening Library” (2021).